Experimental data: PubChem BioAssay AID1259405 (NCATS, 2018)

Test: 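Mouse-designed siRNAs used to find CHO productivity engineering targets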 (primary screen)
Cells: Chinese hamster CHO-K1 ovary cells with stable secreted eGFP expression
Reagents: single siRNA against mouse genes, 0.8 pmol siRNA per well (2 µl of 400 nM stock)
Timing: 3 days
Measured: 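Per-well intracellular GFP measured by laser scanning cytometry, plus viability from ATP luminescence, each relative to plate median of non-targeting control wells, in %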
Direction: GFP, % of control: higher = more GFP per well, higher productivity; viability (ATP), % of control: higher = more viable cells (more ATP)
Active means: 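Called active when intracellular GFP, relative to negative control, is at or above 120%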
Here is one part, drawn at random, of about 50,000 deposited reagents. In the full data, about 4,000 (8%) were called active. 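Mouse siRNA library applied to hamster cells; one well for each siRNA.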 A number with no mark means an inactive call. The numbers tell different reagents against one gene apart.

| Gene | reagent no. | GFP, % of control | viability (ATP), % of control |
| --- | --- | --- | --- |
| Ints11 (GeneID 71957) | 1 | 77.9 | 78.9 |
| Ints11 (GeneID 71957) | 2 | 63.3 | 77.4 |
| Ints11 (GeneID 71957) | 3 | 54.1 | 73.4 |
| Eif3c (GeneID 56347) | 1 | 34 | 30.4 |
| Eif3c (GeneID 56347) | 2 | 75.5 | 41.6 |
| Eif3c (GeneID 56347) | 3 | 107 | 60.8 |
| Tmpo (GeneID 21917) | 1 | 52.4 | 28.7 |
| Tmpo (GeneID 21917) | 2 | 53.4 | 96.3 |
| Tmpo (GeneID 21917) | 3 | 101 | 60.3 |
| Irak4 (GeneID 266632) | 1 | 35.1 | 32.9 |
| Slc39a4 (GeneID 72027) | 1 | 99.4 | 72.5 |
| Slc39a4 (GeneID 72027) | 2 | 41.2 | 49.3 |
| Slc39a4 (GeneID 72027) | 3 | 67.3 | 86.3 |
| Tbkbp1 (GeneID 73174) | 1 | 107 | 90.3 |
| Tbkbp1 (GeneID 73174) | 2 | 28.9 | 22.2 |
| Tbkbp1 (GeneID 73174) | 3 | 104 | 107 |
| Tlx2 (GeneID 21909) | 1 | 54.1 | 58.1 |
| Tlx2 (GeneID 21909) | 2 | 61.3 | 89.4 |
| Krt2 (GeneID 16681) | 1 | 114 | 115 |
| Krt2 (GeneID 16681) | 2 | 97.9 | 75.9 |
| Clasp2 (GeneID 76499) | 1 | 91.4 | 83.3 |
| Clasp2 (GeneID 76499) | 2 | 87 | 90.1 |
| Clasp2 (GeneID 76499) | 3 | 109 | 91.7 |
| Ttll12 (GeneID 223723) | 1 | 49.5 | 63.3 |
| Ttll12 (GeneID 223723) | 2 | 78.9 | 117 |
| Ttll12 (GeneID 223723) | 3 | 86.5 | 107 |
| Spdef (GeneID 30051) | 1 | 65 | 57.6 |
| Spdef (GeneID 30051) | 2 | 84.2 | 78.3 |
| Spdef (GeneID 30051) | 3 | 97.6 | 83.5 |
| Akr1c19 (GeneID 432720) | 1 | 89.5 | 65.4 |
| Akr1c19 (GeneID 432720) | 2 | 177 (active) | 51 |
| Akr1c19 (GeneID 432720) | 3 | 75.8 | 81.6 |
| Dennd2c (GeneID 329727) | 1 | 60.7 | 41.4 |
| Dennd2c (GeneID 329727) | 2 | 54.1 | 52.6 |
| Dennd2c (GeneID 329727) | 3 | 94.4 | 91.8 |
| Esr2 (GeneID 13983) | 1 | 49.6 | 72.8 |
| Esr2 (GeneID 13983) | 2 | 72.4 | 81.8 |
| Esr2 (GeneID 13983) | 3 | 73 | 85.7 |
| Gja3 (GeneID 14611) | 1 | 96.6 | 94.3 |
| Gja3 (GeneID 14611) | 2 | 99.1 | 90.2 |
| Gja3 (GeneID 14611) | 3 | 90.6 | 104 |
| Iyd (GeneID 70337) | 1 | 89 | 44.8 |
| Iyd (GeneID 70337) | 2 | 93.9 | 44.9 |
| Iyd (GeneID 70337) | 3 | 90.9 | 94.3 |
| Ccdc124 (GeneID 234388) | 1 | 49.5 | 53.9 |
| Ccdc124 (GeneID 234388) | 2 | 23.3 | 21.2 |
| Ccdc124 (GeneID 234388) | 3 | 99.8 | 102 |

6 entries from above in another layout.
Gene	reagent no.	GFP, % of control	viability (ATP), % of control
Ttll12 (GeneID 223723)	3	86.5	107
Spdef (GeneID 30051)	1	65	57.6
Spdef (GeneID 30051)	2	84.2	78.3
Spdef (GeneID 30051)	3	97.6	83.5
Akr1c19 (GeneID 432720)	1	89.5	65.4
Akr1c19 (GeneID 432720)	2	177 (active)	51

More reagents follow.
| Gene | reagent no. | GFP, % of control | viability (ATP), % of control |
| --- | --- | --- | --- |
| Tenm3 (GeneID 23965) | 1 | 67.3 | 64.5 |
| Tenm3 (GeneID 23965) | 2 | 44.7 | 95 |
| Tenm3 (GeneID 23965) | 3 | 39 | 89.9 |
| Klc2 (GeneID 16594) | 1 | 101 | 78.4 |
| Klc2 (GeneID 16594) | 2 | 97.4 | 57 |
| Vmn1r47 (GeneID 113846) | 1 | 63.7 | 61.8 |
| Vmn1r47 (GeneID 113846) | 2 | 67.4 | 75.7 |
| Vmn1r47 (GeneID 113846) | 3 | 58.9 | 74.2 |
| Il13ra1 (GeneID 16164) | 1 | 74.5 | 58.7 |
| Il13ra1 (GeneID 16164) | 2 | 41.4 | 26.9 |
| Il13ra1 (GeneID 16164) | 3 | 71.8 | 71.8 |
| Ubn1 (GeneID 170644) | 1 | 99.8 | 80.1 |
| Ubn1 (GeneID 170644) | 2 | 67.2 | 77.4 |
| Ubn1 (GeneID 170644) | 3 | 180 (active) | 87.4 |
| Rhbdf1 (GeneID 13650) | 1 | 93.6 | 70.2 |
| Rhbdf1 (GeneID 13650) | 2 | 74.4 | 128 |
| Rhbdf1 (GeneID 13650) | 3 | 63.1 | 28.7 |
| Naglu (GeneID 27419) | 1 | 103 | 98.8 |
| Naglu (GeneID 27419) | 2 | 93 | 81.4 |
| Naglu (GeneID 27419) | 3 | 51.5 | 42.8 |
| Cog1 (GeneID 16834) | 1 | 117 | 120 |
| Cog1 (GeneID 16834) | 2 | 80.4 | 72.3 |
| Cog1 (GeneID 16834) | 3 | 88.8 | 107 |
| Rpgrip1l (GeneID 244585) | 1 | 99.3 | 89.4 |
| Rpgrip1l (GeneID 244585) | 2 | 67 | 83.6 |
| Rpgrip1l (GeneID 244585) | 3 | 87.6 | 81.4 |
| Cep128 (GeneID 75216) | 1 | 73 | 81.3 |
| Cep128 (GeneID 75216) | 2 | 107 | 56.4 |
| Cep128 (GeneID 75216) | 3 | 51.5 | 77.2 |
| Or4k47 (GeneID 258890) | 1 | 119 | 95 |
| Or4k47 (GeneID 258890) | 2 | 74.2 | 84.9 |
| Or4k47 (GeneID 258890) | 3 | 77.8 | 85.5 |
| Ipo7 (GeneID 233726) | 1 | 41.2 | 72.4 |
| Ipo7 (GeneID 233726) | 2 | 49.8 | 69.3 |
| Ipo7 (GeneID 233726) | 3 | 55.3 | 71.3 |
| Ins1 (GeneID 16333) | 1 | 66.8 | 61.3 |
| Ins1 (GeneID 16333) | 2 | 93.8 | 47.9 |
| Ins1 (GeneID 16333) | 3 | 47.3 | 52.1 |
